The results in this text go back to paper PMC8541566.

Test [1] concerns the target T1, Pkc1-GFP (from plasmid p2062, pVDG7 PKC1-GFP) (S. cerevisiae) (UniProt P24583).
T1 sequence: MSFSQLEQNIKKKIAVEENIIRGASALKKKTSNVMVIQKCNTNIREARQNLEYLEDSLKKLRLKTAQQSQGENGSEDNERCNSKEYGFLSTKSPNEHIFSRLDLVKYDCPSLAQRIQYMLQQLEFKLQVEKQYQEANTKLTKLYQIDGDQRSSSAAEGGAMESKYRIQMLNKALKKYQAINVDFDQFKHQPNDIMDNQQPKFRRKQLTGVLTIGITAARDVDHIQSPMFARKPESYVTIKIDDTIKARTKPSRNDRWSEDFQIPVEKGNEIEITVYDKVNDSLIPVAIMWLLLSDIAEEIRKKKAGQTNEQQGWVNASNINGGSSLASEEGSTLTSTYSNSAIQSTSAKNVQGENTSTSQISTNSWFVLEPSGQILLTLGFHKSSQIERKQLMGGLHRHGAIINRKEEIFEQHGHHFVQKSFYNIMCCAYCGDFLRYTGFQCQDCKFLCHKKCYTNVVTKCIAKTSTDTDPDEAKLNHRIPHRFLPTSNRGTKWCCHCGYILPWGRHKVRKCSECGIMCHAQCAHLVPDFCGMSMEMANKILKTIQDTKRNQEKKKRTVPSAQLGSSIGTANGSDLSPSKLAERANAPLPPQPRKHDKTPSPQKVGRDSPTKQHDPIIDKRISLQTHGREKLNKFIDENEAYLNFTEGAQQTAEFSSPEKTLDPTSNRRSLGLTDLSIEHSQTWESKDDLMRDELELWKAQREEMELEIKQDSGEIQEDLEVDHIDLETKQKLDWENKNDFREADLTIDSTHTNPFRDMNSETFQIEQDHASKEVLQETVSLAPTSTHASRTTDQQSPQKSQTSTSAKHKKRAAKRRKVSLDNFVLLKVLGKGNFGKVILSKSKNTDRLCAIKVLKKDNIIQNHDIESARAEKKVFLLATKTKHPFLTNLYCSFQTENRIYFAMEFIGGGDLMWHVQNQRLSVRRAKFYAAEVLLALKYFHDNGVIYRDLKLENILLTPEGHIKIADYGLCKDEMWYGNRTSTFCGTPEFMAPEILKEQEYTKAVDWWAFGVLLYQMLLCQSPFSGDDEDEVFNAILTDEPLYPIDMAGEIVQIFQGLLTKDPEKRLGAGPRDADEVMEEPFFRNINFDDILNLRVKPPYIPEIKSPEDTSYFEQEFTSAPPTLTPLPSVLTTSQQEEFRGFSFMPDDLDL
The experiment in a line: affinity purification with mass spectrometry; Pkc1-GFP isolated with GFP-trap agarose from extracts of untreated DL100 cells (no HU); whole lane digested, LC-MS/MS.

The target in test [2] is T1, Pkc1-GFP (from plasmid p2062, pVDG7 PKC1-GFP) (S. cerevisiae). The experiment in a line: affinity purification with mass spectrometry; Pkc1-GFP isolated with GFP-trap agarose from extracts of DL100 cells treated with 250 mM HU for 4 h; whole lane digested, LC-MS/MS.

These are yes or no findings as the source states them, for the method shown. In cells and extracts the contact can be indirect. These calls come from enrichment with a bait or labelling near it, and not all partners need be listed. For some assays here: No binding means not detected with the bait. Tags and fused reporters may be left off the sequences shown.

B1: Hrr25 (HO and radiation repair; casein kinase 1 ortholog), endogenous (enzyme, UniProt P29295 1-494)
chain: MDLRVGRKFRIGRKIGSGSFGDIYHGTNLISGEEVAIKLESIRSRHPQLDYESRVYRYLSGGVGIPFIRWFGREGEYNAMVIDLLGPSLEDLFNYCHRRFSFKTVIMLALQMFCRIQYIHGRSFIHRDIKPDNFLMGVGRRGSTVHVIDFGLSKKYRDFNTHRHIPYRENKSLTGTARYASVNTHLGIEQSRRDDLESLGYVLIYFCKGSLPWQGLKATTKKQKYDRIMEKKLNVSVETLCSGLPLEFQEYMAYCKNLKFDEKPDYLFLARLFKDLSIKLEYHNDHLFDWTMLRYTKAMVEKQRDLLIEKGDLNANSNAASASNSTDNKSETFNKIKLLAMKKFPTHFHYYKNEDKHNPSPEEIKQQTILNNNAASSLPEELLNALDKGMENLRQQQPQQQVQSSQPQPQPQQLQQQPNGQRPNYYPEPLLQQQQRDSQEQQQQVPMATTRATQYPPQINSNNFNTNQASVPPQMRSNPQQPPQDKPAGQSIWL
With B1, the binding result is “no binding (only cells not treated with HU)” in test [1] and “binds” in test [2].
